According to PubChem BioAssay AID504834 (National Center for Advancing Translational Sciences (NCATS), 2011):
Out of some 320,000 compounds screened, about 22,000 (6.9%) were called active. This list was built around the results that the source calls inconclusive (neither active nor inactive); the mix of calls is not that of the screen. Calls follow the shape of the dose curve; as a rule, active = well fitted inhibition curve with a large enough effect; inconclusive = small, poorly fitted or top-dose-only effect, or another doubt; inactive = no such curve, though single readings can be large or run the other way. Where the call is inconclusive, the potency comes from a doubtful curve fit.

Experiment: Primary qHTS for delayed death inhibitors of the malarial parasite plastid, 96 hour incubation
Details: P. falciparum luciferase reporter growth; series mostly up to 28.7 µM; activity change, negative = inhibition: at the top concentration
In short: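 96 h incubation, 37 C, 5% CO2, of luciferase-reporter P. falciparum-infected RBCs (2% hematocrit, 0.05% parasitemia final) with test compounds; endpoint luminescence.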
% is scaled to controls: 0 for no effect and ±100 for the full control effect; potency is read from the fitted curve at half-maximal effect.

SMILES | Potency | activity change, negative = inhibition
COc1ccc(C(=O)N=C2SC3CS(=O)(=O)CC3N2Cc2ccccc2)cc1OC (stereo unspecified) | inconclusive: 11.7 µM [inhibitor, partial curve, poor fit] | 
Oc1ccccc1-c1cc(-c2ccc3c(c2)OCCO3)n[nH]1 |  | inactive: 198%
O=C(C[n+]1ccccc1)N/N=C/c1ccc(Cl)c(Cl)c1 | inconclusive: 18.5 µM [inhibitor, single point] | 
O=C(Nc1nc2ccccc2[nH]1)C1CCCC1 |  | inactive: -19.2%
COc1cccc(NC(=O)CN(C)C(=O)Cc2ccc3c(c2)CCC3)c1 | inconclusive: 1.65 µM [inhibitor, partial curve] | 
Cc1cccc(NC(=O)Cn2c(O)c(N=NC(N)=S)c3ccccc32)c1 | active: 14.7 µM | 
CCC(=O)N1CCN(c2ccc(NC(=S)NC(=O)COc3ccccc3)cc2)CC1 | active: 14.7 µM | 
COc1cccc(C(=O)N2CCOCC2)c1 | inconclusive: 8.28 µM [inhibitor, partial curve, poor fit] | 
CCCSCCCNC(=O)c1ccccc1NC(=O)C1=CSCCO1 | active: 13.1 µM | 
CN(C)S(=O)(=O)c1cccc(C(=O)OCC(=O)Nc2sccc2C(N)=O)c1 | active: 3.7 µM | 
COc1ccc(-c2cc(C(=O)Nc3c(C)nn(Cc4ccccc4)c3C)no2)cc1 | active: 4.65 µM | 
Fc1ccc(-[n+]2nc(Nc3ccccc3)sc2-c2ccc(OCc3ccccc3)cc2)cc1 | inconclusive: 13.1 µM [inhibitor, partial curve, poor fit] | 
Cc1cc(=O)n2nc(N3CCCC(C(=O)NCCCN4CC(C)CC(C)C4)C3)sc2n1 (stereo unspecified) | inconclusive: 6.57 µM [inhibitor, partial curve, poor fit] | 
CCOC(=O)c1c[nH]c2c3c(ccc2c1=O)CCCC3 | inconclusive: 18.5 µM [inhibitor, single point] | 
Cc1cc2ncn(-c3ncnc4scc(-c5ccccc5)c34)c2cc1C | inconclusive: 0.104 µM [inhibitor, full curve, poor fit] | 
COc1ccc(CN(CCC(c2ccccc2)c2ccco2)C(=O)c2ccco2)cc1 (stereo unspecified) | active: 11.7 µM | 
CCCCN(C)C(=O)c1ccc2c(c1)N(CC)C(=O)c1ccccc1S2(=O)=O | active: 10.4 µM | 
CCC1CCCCN1C(=O)CCc1nnc(Cc2c[nH]c3ccccc23)o1 (stereo unspecified) | inconclusive: 9.28 µM [inhibitor, partial curve, poor fit] | 
CCOc1ccc(NC(=O)CCNS(=O)(=O)c2ccc3c(c2)CC(C)N3C(C)=O)cc1 (stereo unspecified) |  | inactive: -9.72%
COc1ccc(NC(=O)NC2CCCCC2C)cc1 (stereo unspecified) | inconclusive: 4.65 µM [inhibitor, single point] | 
O=C(NCC(=O)N(Cc1ccco1)C(C(=O)NC1CCCCC1)c1ccncc1)c1cccs1 (stereo unspecified) | inconclusive: 13.1 µM [inhibitor, partial curve, poor fit] | 
CCOC(=O)N1CCN(C(=O)c2ccc3c(=O)n(CCc4ccccc4)c(=O)[nH]c3c2)CC1 | inconclusive: 16.5 µM [inhibitor, single point] | 
CCCN1CCc2c(sc(NC(=S)NC(=O)c3ccccc3)c2C#N)C1 |  | inactive: 0%

SMILES | Potency | activity change, negative = inhibition
CCC(=O)Nc1ccc(NC(=O)c2ccccn2)cn1 |  | inactive: 0.15%
COc1cc(S(=O)(=O)NC(C)C)ccc1Cl | inconclusive: 9.28 µM [inhibitor, single point] | 
NNc1nnc2c3cc(F)ccc3n(Cc3ccccc3)c2n1 | active: 3.29 µM | 
COc1ccc(CCNC(=O)COC(=O)C2COc3ccccc3O2)cc1 (stereo unspecified) |  | inactive: 34.7%
CCN(CC)Cc1c(C(=O)OC(C)C)nnn1-c1nonc1N | inconclusive: 1.47 µM [inhibitor, partial curve] | 
Cc1cccc(OC(C)C(=O)N/N=C\c2ccncc2)c1 (stereo unspecified) | inconclusive: 9.28 µM [inhibitor, single point] | 
O=C(Nc1cnc2ccccc2c1)C1COc2ccccc2O1 (stereo unspecified) |  | inactive: 82.5%
CCCCCCCCC(NC(=O)c1ccc(C#N)cc1)C(=O)NCCC (stereo unspecified) | inconclusive: 4.65 µM [inhibitor, partial curve, poor fit] | 
COC(=O)COc1c(/C=C\c2nc(O)c([N+](=O)[O-])c(=O)[nH]2)cccc1OC | inconclusive: 18.5 µM [inhibitor, single point] | 
O=C(N/N=C/c1ccccc1)c1ccc(-c2ccccc2)cc1 |  | inactive: 69%
CCc1ccccc1NC(=O)Nc1ccc(F)cc1F | inconclusive: 0.294 µM [inhibitor, partial curve, poor fit] | 
O=C(Nc1ccccc1)c1cccc(S(=O)(=O)NCc2ccco2)c1 |  | inactive: 55.1%
O=C(Cc1cccs1)N(c1ccc(F)cc1)C1(C(=O)NC2CCCCC2)CCCC1 | inconclusive: 13.1 µM [inhibitor, single point] | 
C=C(C)[C@@H]1CC[C@]2(C(=O)O)CC[C@]3(C)C(CCC4[C@@]5(C)CC[C@H](O)C(C)(C)C5CC[C@]43C)C12 (stereo partly specified) | inconclusive: 13.1 µM [inhibitor, single point] | 
COC(=O)c1ccc2nc(NC(=O)CSCC(=O)OCC(=O)c3ccccc3)sc2c1 |  | inactive: 18.7%
Cc1ccc(-c2nnn(CC(=O)N(CCN3CCOCC3)C(C(=O)NC3CCCC3)c3ccncc3)n2)o1 (stereo unspecified) | inconclusive: 11.7 µM [inhibitor, single point] | 
O=C(Cc1cccs1)Nc1ccc(F)c(F)c1 | inconclusive: 11.7 µM [inhibitor, partial curve, poor fit] | 
O=C(CN1CCSc2ccccc21)NCCCc1ccccc1 | inconclusive: 18.5 µM [inhibitor, single point] | 
CC(C)c1ccc(C(=O)NC2=NCCS2)cc1 |  | inactive: 16%
CC[n+]1c(P(=O)([O-])c2ccccc2)[nH]c2ccccc21 |  | inactive: 17.3%
CC1=C(C(=O)Nc2ccccc2)C(c2ccncc2)C(C#N)=C(SCC(=O)NC2CC2)N1 (stereo unspecified) | inconclusive: 10.4 µM [inhibitor, single point] | 
COc1ccc(N2CCN(c3ncnc4c3nnn4Cc3ccccc3Cl)CC2)cc1 | active: 5.22 µM | 
Cc1ccc(Sc2cc(NCCCO)c([N+](=O)[O-])c3nonc23)cc1 | inconclusive: 18.5 µM [inhibitor, single point] | 

Rewritten as tab-separated lines: part of the list above.
SMILES	Potency	activity change, negative = inhibition
Cc1ccc(-c2nnn(CC(=O)N(CCN3CCOCC3)C(C(=O)NC3CCCC3)c3ccncc3)n2)o1 (stereo unspecified)	inconclusive: 11.7 µM [inhibitor, single point]	
O=C(Cc1cccs1)Nc1ccc(F)c(F)c1	inconclusive: 11.7 µM [inhibitor, partial curve, poor fit]	
